Test results from patent US20120129791A1, “STIMULATOR OF GENITAL, SEXUAL AND REPRODUCTIVE FUNCTION” (<<BIO PEPTID>> COMPANY LIMITED, priority 2009, published 2012).
Not every detail of the peptide structures is certain; ends, links or a residue may be inferred. Where no end group is shown, it is not given here.

How the values were obtained:
[1] = tested on: rats of the Hunter strain; assay: Effect on reproductive behavior and reproductive function of rats; assay type: in vivo
[2] = tested on: women with orgasmic dysfunction; assay: Quantified SFW scale, Group III women with orgasmic dysfunction; assay type: in vivo, human
[3] = tested on: inbred mice with different phenotypes of emotional-stressor reaction; settings: Seredinin et al., 1998; cited from earlier work
[4] = tested on: women with diagnosed infertility; assay: Action of the heptapeptide in women with infertility (Group V, clinical cases); assay type: in vivo, human
[5] = Group III (n=31), before treatment 3.2

TKPRPGP [Thr-Lys-Pro-Arg-Pro-Gly-Pro]
Development of conditioned reflexes, combination ([1]; 1-1.5 month-old baby rats, intact ones only in combination 13-15): 4-5 | Increase of the birth rate of the rats ([1]; against the drug background): 3-5 times | Behavior of rats after administration ([1]; intranasal administration, for 10-15 min, all the study groups of animals): pronounced behavioral changes | Duration of the reinforcing effect on the reproductive behavior of rats ([1]; up to): 1.5-2 months | Highly pronounced change in the indicators of sexual function (evaluated at 2 on the SFW scale): outcome of treatment ([2]; Group III): does not yield restoration | Increase in level of sexual activity on the quantified SFW scale ([2]; Group III): not more than 1 score | Time at which sexual activity increased ([2]; Group III): increased in the first week of treatment | Libido, after treatment ([2]; Group III (n=31), SFW scale, before treatment 3.2): 4.0 points | Attitude toward sexual activity score 5 (intense enjoyment): number of patients after treatment ([2]; Group III (n=31), before 0): 8 | General physical state after sex acts score 5 (satisfaction and fatigue): number of patients after treatment ([2]; Group III (n=31), before 0): 8 | Level of sexual activity score 5 (daily): number of patients after treatment ([2]; Group III (n=31), before 0): 0 | Libido score 5 (daily): number of patients after treatment ([2]; Group III (n=31), before 0): 8 | Libido score 6 (several times a day): number of patients after treatment ([2]; Group III (n=31), before 0): 0 | Lubrication score 5 (sets in rapidly): number of patients after treatment ([2]; Group III (n=31), before 0): 6 | Mood after sex acts score 5 (feeling of gratitude toward man): number of patients after treatment ([2]; Group III (n=31), before 0): 8 | Onset of orgasm score 2 (only during erotic dreams): number of patients after treatment ([2]; Group III (n=31), before 0): 0 | Onset of orgasm score 5 (more than 80% of the sex acts): number of patients after treatment ([2]; Group III (n=31), before 0): 8 | Level of sexual activity score 5 (daily): share of patients after treatment ([2]; Group III (n=31), before 0%): (0%) | Attitude toward sexual activity score 5 (intense enjoyment): share of patients after treatment ([2]; Group III (n=31), before 0.0%): (25.8%) | General physical state after sex acts score 5 (satisfaction and fatigue): share of patients after treatment ([2]; Group III (n=31), before 0.0%): (25.8%) | Libido score 5 (daily): share of patients after treatment ([2]; Group III (n=31), before 0.0%): (25.8%) | Libido score 6 (several times a day): share of patients after treatment ([2]; Group III (n=31), before 0.0%): (0.0%) | Lubrication score 5 (sets in rapidly): share of patients after treatment ([2]; Group III (n=31), before 0.0%): (19.4%) | Mood after sex acts score 5 (feeling of gratitude toward man): share of patients after treatment ([2]; Group III (n=31), before 0.0%): (25.8%) | Onset of orgasm score 2 (only during erotic dreams): share of patients after treatment ([2]; Group III (n=31), before 0.0%): (0.0%) | Onset of orgasm score 5 (more than 80% of the sex acts): share of patients after treatment ([2]; Group III (n=31), before 0.0%): (25.8%) | Attitude toward sexual activity score 2 (aversion to the sex act): number of patients after treatment ([2]; Group III (n=31), before 2): 2 | General physical state after sex acts score 2 (complete physical indifference): number of patients after treatment ([2]; Group III (n=31), before 2): 2 | Level of sexual activity score 4 (weekly): number of patients after treatment ([2]; Group III (n=31), before 2): 10 | Libido score 2 (yearly): number of patients after treatment ([2]; Group III (n=31), before 2): 2 | Lubrication score 2 (rarely emerges): number of patients after treatment ([2]; Group III (n=31), before 2): 2 | Mood after sex acts score 2 (escape from obligation): number of patients after treatment ([2]; Group III (n=31), before 2): 2 | Onset of orgasm score 1 (never experienced orgasm): number of patients after treatment ([2]; Group III (n=31), before 2): 2 | Level of sexual activity score 2 (yearly): number of patients after treatment ([2]; Group III (n=31), before 4): 4 | Attitude toward sexual activity score 2 (aversion to the sex act): share of patients after treatment ([2]; Group III (n=31), before 6.5%): (6.5%) | General physical state after sex acts score 2 (complete physical indifference): share of patients after treatment ([2]; Group III (n=31), before 6.5%): (6.5%) | Level of sexual activity score 4 (weekly): share of patients after treatment ([2]; Group III (n=31), before 6.5%): (32.3%) | Libido score 2 (yearly): share of patients after treatment ([2]; Group III (n=31), before 6.5%): (6.5%) | Lubrication score 2 (rarely emerges): share of patients after treatment ([2]; Group III (n=31), before 6.5%): (6.5%) | Mood after sex acts score 2 (escape from obligation): share of patients after treatment ([2]; Group III (n=31), before 6.5%): (6.5%) | Onset of orgasm score 1 (never experienced orgasm): share of patients after treatment ([2]; Group III (n=31), before 6.5%): (6.5%) | Lubrication score 4 (depends on presence of attraction): number of patients after treatment ([2]; Group III (n=31), before 7): 19 | Libido score 4 (weekly): number of patients after treatment ([2]; Group III (n=31), before 8): 17 | Attitude toward sexual activity score 4 (enjoyment depends on menesis): number of patients after treatment ([2]; Group III (n=31), before 9): 17 | General physical state after sex acts score 4 (sensation of a release of arousal): number of patients after treatment ([2]; Group III (n=31), before 9): 17 | Onset of orgasm score 4 (in half of the sex acts): number of patients after treatment ([2]; Group III (n=31), before 9): 15 | Level of sexual activity score 2 (yearly): share of patients after treatment ([2]; Group III (n=31), before 12.9%): (12.9%) | Mood after sex acts score 4 (recognition of duty fulfilled): number of patients after treatment ([2]; Group III (n=31), before 13): 15 | Mood after sex acts score 3 (complete indifference): number of patients after treatment ([2]; Group III (n=31), before 16): 6 | Attitude toward sexual activity score 3 (indifference toward the sex act): number of patients after treatment ([2]; Group III (n=31), before 20): 4 | General physical state after sex acts score 3 (unfulfilled arousal): number of patients after treatment ([2]; Group III (n=31), before 20): 4 | Onset of orgasm score 3 (single occurrences): number of patients after treatment ([2]; Group III (n=31), before 20): 6 | Libido score 3 (monthly): number of patients after treatment ([2]; Group III (n=31), before 21): 4 | Lubrication score 3 (with protracted stimulation): number of patients after treatment ([2]; Group III (n=31), before 22): 4 | Lubrication score 4 (depends on presence of attraction): share of patients after treatment ([2]; Group III (n=31), before 22.6%): (61.3%) | Level of sexual activity score 3 (monthly): number of patients after treatment ([2]; Group III (n=31), before 25): 17 | Libido score 4 (weekly): share of patients after treatment ([2]; Group III (n=31), before 25.8%): (54.8%) | Attitude toward sexual activity score 4 (enjoyment depends on menesis): share of patients after treatment ([2]; Group III (n=31), before 29.0%): (54.8%) | General physical state after sex acts score 4 (sensation of a release of arousal): share of patients after treatment ([2]; Group III (n=31), before 29.0%): (54.8%) | Onset of orgasm score 4 (in half of the sex acts): share of patients after treatment ([2]; Group III (n=31), before 29.0%): (48.4%) | Mood after sex acts score 4 (recognition of duty fulfilled): share of patients after treatment ([2]; Group III (n=31), before 41.9%): (48.4%) | Mood after sex acts score 3 (complete indifference): share of patients after treatment ([2]; Group III (n=31), before 51.6%): (19.4%) | Attitude toward sexual activity score 3 (indifference toward the sex act): share of patients after treatment ([2]; Group III (n=31), before 64.5%): (12.9%) | General physical state after sex acts score 3 (unfulfilled arousal): share of patients after treatment ([2]; Group III (n=31), before 64.5%): (12.9%) | Onset of orgasm score 3 (single occurrences): share of patients after treatment ([2]; Group III (n=31), before 64.5%): (19.4%) | Libido score 3 (monthly): share of patients after treatment ([2]; Group III (n=31), before 67.7%): (12.9%) | Lubrication score 3 (with protracted stimulation): share of patients after treatment ([2]; Group III (n=31), before 71.0%): (12.9%) | Level of sexual activity score 3 (monthly): share of patients after treatment ([2]; Group III (n=31), before 80.6%): (54.8%) | Level of sexual activity, after treatment ([2]; Group III (n=31), before treatment 2.9): 3.2 points | Attitude toward sexual activity, after treatment [2, 5]: 4.0 points | General physical state after sexual acts, after treatment [2, 5]: 4.0 points | Lubrication, after treatment [2, 5]: 3.9 points | Onset of orgasm, after treatment [2, 5]: 3.9 points | Mood after sexual acts, after treatment ([2]; Group III (n=31), before treatment 3.4): 3.9 points | Patients with an indifferent attitude toward sex ([2]; Group III, after a course of treatment, from 64.5): 12.9% | Attitude toward sexual activity: patients with onset of effect, n (%) ([2]; Group III, day 1): 6 (19.4%) | General physical state after sexual acts: patients with onset of effect, n (%) ([2]; Group III, day 1): 6 (19.4%) | Level of sexual activity: patients with onset of effect, n (%) ([2]; Group III, day 1): 6 (19.4%) | Lubrication: patients with onset of effect, n (%) ([2]; Group III, day 1): 6 (19.4%) | Mood after sexual acts: patients with onset of effect, n (%) ([2]; Group III, day 1): 6 (19.4%) | Onset of orgasm: patients with onset of effect, n (%) ([2]; Group III, day 1): 6 (19.4%) | Libido: patients with onset of effect, n (%) ([2]; Group III, day 1 of drug administration): 8 (100%) | Attitude toward sexual activity: patients with onset of effect, n (%) ([2]; Group III, day 5): 8 (25.8%) | General physical state after sexual acts: patients with onset of effect, n (%) ([2]; Group III, day 5): 8 (25.8%) | Level of sexual activity: patients with onset of effect, n (%) ([2]; Group III, day 5): 8 (25.8%) | Libido: patients with onset of effect, n (%) ([2]; Group III, day 5): 12 (38.7%) | Lubrication: patients with onset of effect, n (%) ([2]; Group III, day 5): 12 (38.7%) | Mood after sexual acts: patients with onset of effect, n (%) ([2]; Group III, day 5): 8 (25.8%) | Onset of orgasm: patients with onset of effect, n (%) ([2]; Group III, day 5): 12 (38.7%) | Attitude toward sexual activity: patients with onset of effect, n (%) ([2]; Group III, day 10): 16 (51.6%) | General physical state after sexual acts: patients with onset of effect, n (%) ([2]; Group III, day 10): 14 (45.2%) | Level of sexual activity: patients with onset of effect, n (%) ([2]; Group III, day 10): 8 (25.8%) | Libido: patients with onset of effect, n (%) ([2]; Group III, day 10): 21 (67.7%) | Lubrication: patients with onset of effect, n (%) ([2]; Group III, day 10): 16 (51.6%) | Mood after sexual acts: patients with onset of effect, n (%) ([2]; Group III, day 10): 12 (38.7%) | Onset of orgasm: patients with onset of effect, n (%) ([2]; Group III, day 10): 14 (45.2%) | Attitude toward sexual activity: patients with onset of effect, n (%) ([2]; Group III, day 15): 24 (77.4%) | General physical state after sexual acts: patients with onset of effect, n (%) ([2]; Group III, day 15): 24 (77.4%) | Level of sexual activity: patients with onset of effect, n (%) ([2]; Group III, day 15): 8 (25.8%) | Libido: patients with onset of effect, n (%) ([2]; Group III, day 15): 25 (80.6%) | Lubrication: patients with onset of effect, n (%) ([2]; Group III, day 15): 24 (77.4%) | Mood after sexual acts: patients with onset of effect, n (%) ([2]; Group III, day 15): 20 (64.5%) | Onset of orgasm: patients with onset of effect, n (%) ([2]; Group III, day 15): 22 (71.0%) | Onset of the effect in patients with a slight degree of impairment of sexual function ([2]; Group III, indicators at a score of 4 on the SFW scale): in the second twenty-four hours of treatment | Antianxiety action [3]: possesses antianxiety action | Time after treatment at which pregnancy ensued, Patient A ([4]; 0.1% solution for 15 days intranasally): 3 months | Time after treatment at which pregnancy ensued, Patient B ([4]; 0.1% solution intranasally for 30 days): 4 months | Pregnancy outcome, Patient B ([4]; person, infertility 2, endocrine form, 0.1% solution intranasally for 30 days): pregnancy ensued | Pregnancy outcome, Patient A ([4]; person, infertility 2, endometriosis, 0.1% solution for 15 days intranasally): pregnancy ensued | Effect on reproductive function ([4]; two clinical cases): positive and stimulating
